The results in this text go back to paper PMC6048764, “Myricetin antagonizes semen-derived enhancer of viral infection (SEVI) formation and influences its infection-enhancing activity” (Retrovirology, 2018).

Results are given in words; binding and its absence hold for the method and conditions named.

The target of test [1] is SEM2_(86–107) (human) (UniProt Q02383). Nature of the test: thioflavin T fluorescence; amyloid fibril formation; peptide 3 mg/ml agitated at 1400 rpm at 37 °C in the presence of myricetin 200 µg/ml; both purified.
The target of test [2] is SEM1_(86–107) (human) (UniProt P04279). The description is as above.

B1: SEM2_(86–107) (peptide, UniProt Q02383 86-107, looked up)
peptide: DLNALHKATKSKQHLGGSQQLL
notes: source: synthetic peptide (Scilight Biotechnology LLC, Beijing)
With B1, the binding entry in test [1] is “no binding (condition: with myricetin 200 µg/ml)”.

B2: SEM1_(86–107) (peptide, UniProt P04279 86-107, looked up)
peptide: DLNALHKTTKSQRHLGGSQQLL
notes: as for B1
Turning to B2, the binding result in test [2] was “no binding (condition: with myricetin 200 µg/ml)”.
